{"source": "the supplement of paper PMC10338343", "note": "± gives the standard deviation. The list shows a part of the results, in another mix than the full data. The uncertainty is large for many entries."}
{"tested_on": "MILI (PIWIL2) piRISC loaded with Kctd7 piRNA (26 nt)", "test": "pre-steady-state target cleavage rate (min^-1); MIWI and MILI are mouse PIWI proteins and EfPiwi is from a freshwater sponge; tags in brackets are library labels; higher = faster piRNA-guided slicing of the target", "conditions": "guide: Kctd7 piRNA 5'p-UGUUAAUCUCUCAGAGAAGGUGACAG; auxiliary factor: 500 nM mouse GTSF1", "description": "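Cleave-'n-Seq: a library of target RNAs (target site embedded in constant flanks, ACAGCATTCCGCGTTAGTGATATCCG... 5' flank; DNA-blocked outside the site) at 0.1 nM was incubated with 1 nM active mouse MILI or MIWI piRISC (synthetic 5'-monophosphorylated piRNA guide) with or without 500 nM mouse GTSF1 at 33 °C for 1 min to 16 h. Uncleaved targets were sequenced and normalised to non-target controls, and the pooled three trials were fitted to a burst-and-steady-state model to give the pre-steady-state cleavage rate (min^-1; k3 is constrained to at most 1e-4). Sequence is the target site only; target names encode pairing extent (gX:gY) and contiguous / 1-mismatch / 2-mismatch / bulge geometry. Fits with R² ≤ 0 are excluded.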"}
{"sequence": "UAGUGACACACCUUCUCUGAGUCUUUAUGA", "pre-steady-state target cleavage rate": "0.000642 ± 0.015"}
{"sequence": "UAGUCUGUCACCUUCUCUGAGAGUUUUACA", "pre-steady-state target cleavage rate": "0.171 ± 0.054"}
{"sequence": "UAGUGACAGUGCUUCUCUGUGAGAUAAACA", "pre-steady-state target cleavage rate": "0.00229 ± 0.0042"}
{"sequence": "UAGUGUGUCACCUUCUCACUGAGAUUAUGA", "pre-steady-state target cleavage rate": "0.00177 ± 0.0083"}
{"sequence": "UAGUGACAGUCCUUCUCUCUCAGAUUAAGA", "pre-steady-state target cleavage rate": "0.000308 ± 0.025"}
{"sequence": "UAGUGACACACCUUCUCUGAGACAUUAACA", "pre-steady-state target cleavage rate": "0.0514 ± 0.0091"}
{"sequence": "UAGUGACACACCUUCUCUGAGCAGAUUAACA", "pre-steady-state target cleavage rate": "0.00162 ± 0.0072"}
{"sequence": "UAGUGACACACCUUCUCUGACUCUAAUUGA [g11:g22:cont:t1A]", "pre-steady-state target cleavage rate": "0.000334 ± 0.026"}
{"sequence": "UAGUGACAGACCUUCUCAGAGAGAUUAUGA", "pre-steady-state target cleavage rate": "0.00398 ± 0.0045"}
{"sequence": "UAGUGUGUCACCUUCUCUGAAGAUUAACA", "pre-steady-state target cleavage rate": "0.00314 ± 0.0045"}
{"sequence": "UAGUGAGUCUCCUUCUCUGAGAGAUAUUGA", "pre-steady-state target cleavage rate": "0.00214 ± 0.0058"}
{"sequence": "UAGUGACAGUGCUUGUCUGAGAGAUAAACA", "pre-steady-state target cleavage rate": "0.00332 ± 0.0044"}
{"sequence": "UAGUCUGUCACGAUCUCUGAGAGAUAUUGA", "pre-steady-state target cleavage rate": "0.000613 ± 0.0073"}
{"sequence": "UAGUGACAGACCUUCUCUGACUGAUUAACA", "pre-steady-state target cleavage rate": "0.000946 ± 0.0098"}
{"sequence": "UAGUGACAGUGCUUCUGCUGAGAGAUUAACA", "pre-steady-state target cleavage rate": "0.000992 ± 0.0067"}
{"sequence": "UAGUGACAGUGGUUCUCUGAGAGAUUAUCA", "pre-steady-state target cleavage rate": "0.0012 ± 0.0051"}
{"sequence": "UAGUGACACACCUACUCUGAGACAUUAACA", "pre-steady-state target cleavage rate": "0.0243 ± 0.0072"}
{"sequence": "UAGUGACAGUGGUUCUCUGACAGAUUAUCA", "pre-steady-state target cleavage rate": "0.000112 ± 0.052"}
{"sequence": "UAGUGACAGACCUUGUCUGAGAGAUUUUGA", "pre-steady-state target cleavage rate": "0.000692 ± 0.014"}
{"sequence": "UAGUGAGUCACCAACUCUGAGAGAUUUUGA", "pre-steady-state target cleavage rate": "0.00126 ± 0.0084"}
{"sequence": "UAGUGACAGUGCUUCUCUUGAGAGAUUAACA", "pre-steady-state target cleavage rate": "0.000131 ± 0.024"}
{"sequence": "UAGUGACAGUGGAACUCUCUCAGAUUAACA", "pre-steady-state target cleavage rate": "0.000171 ± 0.022"}
{"sequence": "UAGUCUGUCACCAACUCUGAGAGAUUAAGA", "pre-steady-state target cleavage rate": "0.047 ± 0.0083"}
{"sequence": "UAGUGACAGUGCUACUCUCAGAGAUUAACA", "pre-steady-state target cleavage rate": "0.00114 ± 0.0042"}
{"sequence": "UAGUGACUCACCUUCUCUGACUCAUAUUGA", "pre-steady-state target cleavage rate": "0.00033 ± 0.023"}
{"sequence": "UAGUGACACACCUUCUCUGACAGUUUAACA", "pre-steady-state target cleavage rate": "0.00187 ± 0.0062"}
{"sequence": "UAGUGACAGACCUUCUCUGAGACAUAAACA", "pre-steady-state target cleavage rate": "0.000418 ± 0.02"}
{"sequence": "UAGUGACACACCUUCUCUGAGACAUUAUCA", "pre-steady-state target cleavage rate": "0.000721 ± 0.0098"}
{"sequence": "UAGUGAGUGACCUUCUCUGAGAGAUUUUGA", "pre-steady-state target cleavage rate": "0.00381 ± 0.0043"}
{"sequence": "UAGUGACAGUGGUUCUCUCAGAGAUUUACA", "pre-steady-state target cleavage rate": "0.000165 ± 0.036"}
{"sequence": "UAGUGUGUCACCUUCUCUGAGACAUUAUCA", "pre-steady-state target cleavage rate": "0.00447 ± 0.0049"}
{"sequence": "UAGUGACAGUGGUUCUCUGAGAGAUUAAA", "pre-steady-state target cleavage rate": "0.000548 ± 0.012"}
{"sequence": "UAGUGACUCACCUAGACUGAGAGAUUAAGA", "pre-steady-state target cleavage rate": "0.000272 ± 0.031"}
{"sequence": "UAGUGAGUCACCUUCUCUGAGAGAUAUAACA", "pre-steady-state target cleavage rate": "0.347 ± 0.046"}
{"sequence": "UAGUGACAGUCCUUCUGAGAGAGAUUAAGA", "pre-steady-state target cleavage rate": "0.00252 ± 0.0034"}
{"sequence": "UAGUGUGUCACCUUCGUCUGAGAGAUUAACA", "pre-steady-state target cleavage rate": "0.088 ± 0.012"}
{"sequence": "UAGUGACAGUGGUUCUCUGAGAUAUUAACA", "pre-steady-state target cleavage rate": "0.000313 ± 0.0096"}
{"sequence": "UAGUGACAGUGGAUCUCUGAGAGCAUUAACA", "pre-steady-state target cleavage rate": "0.000117 ± 0.028"}
{"sequence": "UAGUGACACACCUUCUCUGACUCAUAUUGA", "pre-steady-state target cleavage rate": "0.00032 ± 0.021"}
{"sequence": "UAGUCUGUCACCUUCUGCUGAGAGAUUAACA", "pre-steady-state target cleavage rate": "0.0816 ± 0.013"}
{"sequence": "UAGUGACAGUCCUUCUCUCUGAGAUUAACA", "pre-steady-state target cleavage rate": "0.00157 ± 0.0058"}
{"sequence": "UAGUCUCUCACCAUCUCUGAGAGAUUAACA", "pre-steady-state target cleavage rate": "0.0256 ± 0.0069"}
{"sequence": "UAGUGACAGUGGUUCUUGAGAGAUUAACA", "pre-steady-state target cleavage rate": "0.000782 ± 0.0099"}
{"sequence": "UAGUGACAGUGCAUCUCUGAGUGAUUAACA", "pre-steady-state target cleavage rate": "0.00148 ± 0.0042"}
{"sequence": "UAGUGACAGUGGAAGAGUGAGAGAUUACCA", "pre-steady-state target cleavage rate": "0.000127 ± 0.047"}
{"sequence": "UAGUGACACACCUACUCUGAGUGAUUAACA", "pre-steady-state target cleavage rate": "0.00121 ± 0.0075"}
{"sequence": "UAGUGACAGUGCUUCUCUGAGAGAUUUUGA", "pre-steady-state target cleavage rate": "0.000119 ± 0.024"}
{"sequence": "UAGUGACUCACCUUCUCUGAGAGAAAAAGA", "pre-steady-state target cleavage rate": "0.00188 ± 0.0056"}
{"sequence": "UAGUGACAGUGCUUCUCUGAGAGUUUAAGA", "pre-steady-state target cleavage rate": "0.000194 ± 0.017"}
{"sequence": "UAGUGACAGACCUUCUCUGAGACAUUAUCA", "pre-steady-state target cleavage rate": "0.000696 ± 0.013"}
{"sequence": "UAGUGACUCACCUUCUCUGAGUGAUUUACA", "pre-steady-state target cleavage rate": "0.000532 ± 0.012"}
{"sequence": "UAGUGUGUCACCUUCUCUGAGAGAGUAACA", "pre-steady-state target cleavage rate": "0.287 ± 0.056"}
{"sequence": "UAGUGACAGUCGAUCUCUGAGAGAUUAAGA", "pre-steady-state target cleavage rate": "0.00145 ± 0.004"}
{"sequence": "UAGUGACUCUGCUUCUCUGAGAGAUUUUGA", "pre-steady-state target cleavage rate": "0.00212 ± 0.004"}
{"sequence": "UAGUGACAGUGGAAGUCUGAGAGAUUAACG [g2:g15:cont:t1G]", "pre-steady-state target cleavage rate": "0.0021 ± 0.0021"}
{"sequence": "UAGUGACAGACCUUCUCUGACAGAUUAAGA", "pre-steady-state target cleavage rate": "0.000119 ± 0.047"}
{"sequence": "UAGUGACAGACCUUCUCUGACGAGAUUAACA", "pre-steady-state target cleavage rate": "0.00291 ± 0.0043"}
{"sequence": "UAGUGACAGUGGAAGUUCUGAGAGAUUAACA", "pre-steady-state target cleavage rate": "0.000435 ± 0.008"}
{"sequence": "UAGUGUGUCACCUUCUCUGAGAAAUUAACA", "pre-steady-state target cleavage rate": "0.112 ± 0.019"}
{"sequence": "UAGUGACAGUCCUUCUGCUGAGAGAUUAACA", "pre-steady-state target cleavage rate": "0.000632 ± 0.01"}
{"sequence": "UAGUGACAGACCUUCUCUGAGUCAUUAUGA", "pre-steady-state target cleavage rate": "0.000217 ± 0.023"}
{"sequence": "UAGUGACAGUGCUACUCUGAGAGAUUAAGA", "pre-steady-state target cleavage rate": "0.00109 ± 0.0053"}
{"sequence": "UAGUGACACACCUUCUCUGAGUCAUUAACA", "pre-steady-state target cleavage rate": "0.00177 ± 0.006"}
{"sequence": "UAGUGACAGUGGAACUUCUGAGAGAUUAACA", "pre-steady-state target cleavage rate": "0.000348 ± 0.013"}
{"sequence": "UAGUGACAGUGCUUCUGUCAGAGAUUAACA", "pre-steady-state target cleavage rate": "0.00142 ± 0.008"}
{"sequence": "UAGUCAUGUCACCUUCUCUGAGAGAUUAACA", "pre-steady-state target cleavage rate": "0.238 ± 0.023"}
{"sequence": "UAGUGACACACCUUCUCUGAGUGUUUAACA", "pre-steady-state target cleavage rate": "0.000944 ± 0.0098"}
{"sequence": "UAGUCUGACACCUUCUCUGAGAGAUUUUGA", "pre-steady-state target cleavage rate": "0.00148 ± 0.0052"}
{"sequence": "UAGUGACAGACCUUCUCUGACUCUAAUUGA [g11:g21:cont:t1A]", "pre-steady-state target cleavage rate": "0.000149 ± 0.029"}
{"sequence": "UAGUGACAGUGGAAGAGACUCAGAUUAACC [g2:g9:cont:t1C]", "pre-steady-state target cleavage rate": "0.000412 ± 0.013"}
{"sequence": "UAGUGACAGUGCUUCACUGAGAGUUUAACA", "pre-steady-state target cleavage rate": "0.0013 ± 0.0056"}
